{"source": "PubChem BioAssay AID540256", "about": "(National Center for Advancing Translational Sciences (NCATS), 2011)", "note": "Values joined by “and” are separate entries in the source; they are usually repeats but may differ in a detail not shown here. Identical values can stand only once. Screen size: about 300,000 compounds; about 3,700 (1.2%) were called active. The shares of active, inactive and inconclusive entries below differ from those in the screen. Calls follow the shape of the full dose curve; tested in HEK293 cells. Potencies beside an inconclusive call are fits to weak or partial responses and may not hold up. Potency is read from the fitted curve at half-maximal effect."}
{"assay": "qHTS for Inhibitors of binding or entry into cells for Lassa Virus; also: nearly all actives have a fitted effect of over 50% in size", "conditions": "Lassa virus pseudotype entry inhibition, cell reporter; series mostly up to 37.9 µM"}
{"smiles": "Cc1ccc(C(=O)NCC(=O)OCc2cc(=O)n3nc(C4CCCCC4)sc3n2)cc1", "Potency": "inactive"}
{"smiles": "CCCCN(CCCC)c1nc(OC)nc(-n2nnc(C(C)=O)c2C)n1", "Potency": "inconclusive: 17.8 µM [inhibitor, single point]"}
{"smiles": "C=CCn1c(C)cc(C(=O)CSc2nnc(NCc3ccccc3)s2)c1C", "Potency": "inconclusive: 29.1 µM [inhibitor, single point]"}
{"smiles": "COc1cccc(NC(=O)CSc2nc3c(sc4ccccc43)c(=O)n2CCN(C)C)c1", "Potency": "inconclusive: 2.82 µM [inhibitor, partial curve, poor fit]"}
{"smiles": "COc1ccc(-n2cc(CNCCc3cnc[nH]3)c(-c3cccc(F)c3)n2)cc1", "Potency": "inconclusive: 22.4 µM [inhibitor, single point]"}
{"smiles": "CCCCn1c(Oc2cccc(C(=O)OC)c2)nc2c1c(=O)n(C)c(=O)n2C", "Potency": "inconclusive: 12.6 µM [inhibitor, partial curve, poor fit]"}
{"smiles": "CCOc1ccc(Cn2ccnc2)cc1[N+](=O)[O-]", "Potency": "inactive"}
{"smiles": "O=S(=O)(c1ccccc1)N1N=C(c2cccs2)CC1c1cccc(O)c1", "note": "(stereo unspecified)", "Potency": "inconclusive: 35.5 µM [inhibitor, single point]"}
{"smiles": "COCCn1c(C)cc(C(=O)COC(=O)/C=C/c2c(C)nn(C3CCS(=O)(=O)C3)c2Cl)c1C", "note": "(stereo unspecified)", "Potency": "inconclusive: 1.26 µM [inhibitor, full curve]"}
{"smiles": "CCN1CCN(c2csc3ccc(Cl)cc3c2=O)CC1", "Potency": "inconclusive: 10 µM [activator, partial curve]"}
{"smiles": "CN=c1scc(C)n1/N=C/c1cc(Br)c(O)c(OC)c1", "Potency": "inconclusive: 11.2 µM [inhibitor, partial curve, poor fit]"}
{"smiles": "O=C(c1ccccc1F)N1CCN(c2ccc([N+](=O)[O-])c(N3CCOCC3)c2)CC1", "Potency": "inconclusive: 28.2 µM [inhibitor, partial curve, poor fit]"}
{"smiles": "CN(C)/N=C/c1ccc(Sc2ccc([N+](=O)[O-])cc2[N+](=O)[O-])o1", "Potency": "inconclusive: 4.61 µM [inhibitor, single point]"}
{"smiles": "CCN(Cc1ccccc1)C(=O)Cn1c(=O)oc2ccccc21", "Potency": "inconclusive: 22.4 µM [activator, single point]"}
{"smiles": "Cc1ccc(-c2nc3cccnc3s2)cc1NC(=O)c1ccco1", "Potency": "inactive"}
{"smiles": "COc1ccc2c(c1)c(=O)c(C(=O)c1ccccc1)cn2Cc1ccc(C)cc1", "Potency": "inconclusive: 7.31 µM [inhibitor, partial curve, poor fit]"}
{"smiles": "O=C(NC1CCCCCC1)C(=S)NCCc1ccccc1", "Potency": "inactive"}
{"smiles": "CCCC1O[C@@H]2C[C@H]3[C@@H]4CCC5=CC(=O)C=C[C@]5(C)[C@H]4[C@@H](O)C[C@]3(C)[C@]2(C(=O)CO)O1", "note": "(stereo partly specified)", "Potency": "inconclusive: 23.1 µM [inhibitor, single point] and inconclusive: 4.6 nM [inhibitor, full curve, poor fit]"}
{"smiles": "CCc1cccc(C)c1Nc1c(-c2ccc(N(C)C)cc2)nc2ncccn12", "Potency": "inconclusive: 31.6 µM [inhibitor, single point]"}
{"smiles": "Cc1cc(C)c2oc(C(=O)Nc3c(C(=O)c4ccc(F)cc4)oc4ccccc34)cc(=O)c2c1", "Potency": "inconclusive: 35.5 µM [activator, single point]"}
{"smiles": "Cc1ccc(C)c(CN2C(=O)c3ccccc3Sc3ccc(C(=O)NCc4ccco4)cc32)c1", "Potency": "inconclusive: 3.98 µM [inhibitor, partial curve, poor fit]"}
{"smiles": "CCc1ccc(CNC(=O)Cc2ccc(NC(=O)C3=C(C)OCCS3)cc2)cc1", "Potency": "inconclusive: 4.47 µM [inhibitor, partial curve]"}
{"smiles": "NC(=O)c1c(NC(=S)Nc2ccc(F)cc2)sc2c1CCCC2", "Potency": "inactive"}
{"smiles": "CCOc1ccc(NC(=O)C(=O)NCCN2CCN(S(=O)(=O)c3ccccc3)CC2)cc1", "Potency": "inconclusive: 1.58 µM [inhibitor, partial curve, poor fit]"}
{"smiles": "CCOc1ccc(C(=O)N2CCCN(C(=O)c3ccc(OCC)cc3)CC2)cc1", "Potency": "inconclusive: 2.06 µM [inhibitor, full curve]"}
{"smiles": "Cc1cc(C(=O)Nc2ccccc2C)n(-c2ccccc2)n1", "Potency": "inactive"}
{"smiles": "O=C(Nc1ccccc1N1CCN(C(=O)c2ccc(Cl)cc2)CC1)c1cc2ccccc2o1", "Potency": "inconclusive: 35.5 µM [inhibitor, single point]"}
{"smiles": "COc1ccc(NS(=O)(=O)c2cc(NC(=O)c3cnc(C)cn3)ccc2N2CCCC2)cc1", "Potency": "inconclusive: 25.1 µM [inhibitor, partial curve, poor fit]"}
{"smiles": "O=[N+]([O-])c1cccc(C=NNc2ccccc2)c1", "Potency": "inactive"}
{"smiles": "COc1ccc(OCC(=O)Nc2ccc(NC(=O)c3ccco3)cc2)cc1", "Potency": "inactive"}
{"smiles": "COc1cc(NC(=O)c2nc3cc(C)c(C)cc3n(C)c2=O)cc(OC)c1OC", "Potency": "inactive"}
{"smiles": "Cc1cc(C)c(-c2nc3ccccc3s2)[nH]1", "Potency": "inconclusive: 2 µM [activator, partial curve, poor fit]"}
{"smiles": "Cc1c(C(=O)c2ccccc2C(=O)O)sc2ccccc12", "Potency": "inactive"}
{"smiles": "CC12CCC(=O)N1C(C(=O)NCCN1C(=O)S/C(=C\\c3ccc(OC(F)F)cc3)C1=O)CS2", "note": "(stereo unspecified)", "Potency": "inactive"}
{"smiles": "Cc1ccc(-c2c[n+]3c(n2-c2ccccc2)CCC3)cc1", "Potency": "inconclusive: 15.8 µM [inhibitor, single point]"}
{"smiles": "COc1cccc(NC(=O)CSc2nc(O)c(C/C=C/c3ccccc3)c(=O)[nH]2)c1", "Potency": "inactive"}
{"smiles": "CCC(=NC1CC1)c1c(O)n(C2CCCCC2)c(=O)[nH]c1=O", "Potency": "inactive"}
{"smiles": "CC1CC(C)CN(C(=S)Nc2ccc(OC(F)F)cc2)C1", "note": "(stereo unspecified)", "Potency": "inconclusive: 5.8 µM [inhibitor, partial curve]"}
{"smiles": "Cc1cc(S(=O)(=O)Nc2cccc(-c3ccc(N4CCOCC4)nn3)c2)c(C)cc1Cl", "Potency": "inconclusive: 8.91 µM [inhibitor, partial curve]"}
{"smiles": "CCOc1ccc(C2Nc3ccc4ccccc4c3-c3c2c(=O)oc2ccccc32)cc1", "note": "(stereo unspecified)", "Potency": "inconclusive: 7.3 µM [inhibitor, partial curve, poor fit]"}
{"smiles": "Cc1ccccc1-n1cc(CNC(=O)CC2C(=O)NCCN2C/C=C/c2ccccc2)cn1", "note": "(stereo unspecified)", "Potency": "inconclusive: 31.6 µM [inhibitor, single point]"}
{"smiles": "CCOC(=O)c1c(NC(=S)NCCc2ccccc2)sc2c1CC(C(C)C)OC2", "note": "(stereo unspecified)", "Potency": "inconclusive: 11.2 µM [inhibitor, partial curve, poor fit]"}
{"smiles": "CC(=O)Nc1ncc2c(n1)CC(c1ccco1)CC2=O", "note": "(stereo unspecified)", "Potency": "inconclusive: 12.6 µM [activator, single point]"}
{"smiles": "CCCN(CCC)C(=O)c1c(NC(=O)CC)sc2c1CCCCC2", "Potency": "inconclusive: 7.3 µM [inhibitor, partial curve]"}
{"smiles": "Clc1cccc(-n2ncc3c(NCCCc4ccccc4)ncnc32)c1", "Potency": "inconclusive: 6.31 µM [inhibitor, single point]"}
{"smiles": "FC(F)(F)c1cccc(CN2CCSCC2)c1", "Potency": "inconclusive: 12.6 µM [activator, partial curve, poor fit]"}
{"smiles": "O=C(NCCSc1c(-c2ccc(Br)cc2)[nH]c2ccccc12)c1ccc(S(=O)(=O)N2CCOCC2)cc1", "Potency": "inactive"}
{"smiles": "O=c1cc(-c2ccccc2Cl)oc2cc(O)cc(O)c12", "Potency": "inconclusive: 11.2 µM [activator, partial curve, poor fit]"}
{"smiles": "COc1ccc(-c2ccnc(SCC(=O)c3ccc(Cl)cc3)n2)cc1", "Potency": "inconclusive: 17.8 µM [inhibitor, partial curve, poor fit]"}
{"smiles": "O=C(N/N=C/c1ccccc1)c1ccco1", "Potency": "inconclusive: 35.5 µM [inhibitor, single point]"}
{"smiles": "Cc1ccc(NC2=CC(=O)C(=O)c3ccccc32)cc1", "Potency": "inconclusive: 23.1 µM [inhibitor, single point]"}
{"smiles": "CCOCCCNC(=O)c1cc2sc(Cl)cc2n1CC", "Potency": "inconclusive: 0.231 µM [inhibitor, full curve, poor fit]"}
{"smiles": "Cc1[nH]c2ccc(C(=O)OCC(=O)NC3(C#N)CCCCC3)cc2c1C", "Potency": "active: 6.31 µM"}
{"smiles": "Cc1[nH]n2c(=O)cc(C(C)C)nc2c1-c1ccccc1", "Potency": "inactive"}
{"smiles": "CN(Cc1ccccc1)c1nc2c(c(=O)[nH]c(=O)n2C)n1CCCSc1ncccn1", "Potency": "inconclusive: 29.1 µM [inhibitor, single point]"}
{"smiles": "CN(C(=O)CC1C(=O)NCCN1Cc1ccccc1F)C1CCOCC1", "note": "(stereo unspecified)", "Potency": "inactive"}
{"smiles": "Cc1ccc2[nH]cc(CCCN3C(=O)c4ccccc4C3=O)c2c1", "Potency": "inconclusive: 29.1 µM [inhibitor, single point]"}
{"smiles": "COC(=O)c1cccc(NC(=O)CN2CCN(c3ccc(OC)cc3)CC2)c1", "Potency": "inconclusive: 5.8 µM [inhibitor, full curve]"}
{"smiles": "O=C(CSc1nnc(-c2ccncc2)o1)Nc1nncs1", "Potency": "inactive"}
{"smiles": "CCOc1ccc(N2C(=O)c3[nH]nc(-c4ccccc4)c3C2c2ccc(O)c(OC)c2)cc1", "note": "(stereo unspecified)", "Potency": "inconclusive: 35.5 µM [inhibitor, single point]"}
{"smiles": "O=C(Nc1ccc(S(=O)(=O)Nc2ncccn2)cc1)c1cccc(Cl)c1", "Potency": "inactive"}
{"smiles": "CCCn1c(-c2ccc[nH]c2=O)nc2cc(C)c(C)cc21", "Potency": "inactive"}
{"smiles": "N#Cc1c2n(c(=S)n(-c3ccccc3)c1=O)CCCCC2", "Potency": "inactive"}
{"smiles": "CC(C)(C)C(=O)O[C@H]1CC[C@@]2(C)C(=CC(=O)C3C2CC[C@]2(C)C(=O)CCC32)C1", "note": "(stereo partly specified)", "Potency": "inconclusive: 6.31 µM [inhibitor, single point]"}
{"smiles": "C/C(=N/NC(=O)C1COc2ccccc2O1)c1ccco1", "note": "(stereo unspecified)", "Potency": "inconclusive: 35.5 µM [inhibitor, single point]"}
{"smiles": "CCOC(=O)C1(CCc2ccccc2)CCN(Cc2c(O)cccc2OC)CC1", "Potency": "inconclusive: 35.5 µM [inhibitor, single point]"}
